Literature values as cited in patent publication US9155814B2, “Nanostructured material formulated with bone cement for effective antibiotic delivery” (priority 2009, dated 2015).
≈ marks a conversion by molar mass, not a printed value.

Conditions: in H2O at 20° C.; cited from earlier work

For COc1ccc2c(c1)c(CC(=O)O)c(C)n2C(=O)c1ccc(Cl)cc1 [indomethacin], the solubility is given as 4 µg/mL (≈ 11.2 µM).
